Test results from article PMC4736406 (Stem Cells International, 2016).
Where a name gives a salt, the structure may show the parent alone.

Assays:
[1] = system: HepG2 cells; assay: Image based high content analysis (HCA), fixed and live assays, in HepG2; conditions: ratio of minimal effective concentration to Cmax
Protocol: Briefly, the cells were grown in DMEM supplemented with 10% heat inactivated FBS, 1% penicillin-streptomycin (PEST), 1% sodium pyruvate, and 1% nonessential amino acids. Cells were passaged at 1 : 8 or 1 : 6 every 3-4 days when they reach 75–80% confluence. Seeding density was optimized for HCA application to ensure that the cells were in a monolayer (5000 cells per well in 96-well plates) for precise imaging. The cells were grown for 48 h to attach and stabilize. The experiments performed with HepG2 cells were designed to ensure that each assay was performed with cells in a similar growth phase.
Each concentration was assayed in triplicate wells. […] The experimental process is illustrated in Figure 2.
And finally, TOTO-3 was used for assessing PMP.
The cells were imaged using an Olympus ScanR system.
All other fluorescence signals were considered as subobjects.

[2] = system: hiPSC derived hepatocytes (hiPS-HEP); conditions: human, 48 h;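 also: hiPS-HEP obtained from ChiPSC4 through definitive endoderm under serum- and feeder-free conditions in 96-well plates, fluorescence imaging, each concentration run in triplicate wells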
[3] = plasma; no reference given; read-out: C max (maximum plasma concentration of the drug); cited from earlier work
[4] = system: hiPSC derived hepatocytes (hiPS-HEP); assay: Image based high content analysis (HCA), fixed and live assays, in hiPSC derived hepatocytes; conditions: 48 h;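 also: hiPS-HEP obtained from ChiPSC4 through definitive endoderm under serum- and feeder-free conditions in 96-well plates, fluorescence imaging, each concentration run in triplicate wells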

For CCCCc1oc2ccccc2c1C(=O)c1cc(I)c(OCCN(CC)CC)c(I)c1 [Amiodarone, amiodarone hydrochloride], the “TR (toxicity risk)” value [1] was 1.8, the “Concentrations at which phospholipids were not detected (higher than)” value [2] was “higher than 40 μM” and the “Doses at which hyperpolarization of mitochondrial membrane was detected (up to); MMP dropped at higher doses” value [2] was “up to 40 μM”. For the same molecule, the “Increase in number of lipid droplets compared to control” value [2] was 18 fold, the “TR (toxicity risk)” value [2] was 5.7 and the Cmax [3] was 2200 nM. For the same molecule, the “IC50/EC50 Nucleus Area” value ([4]; fixed assay) was 2.2 µM, the “IC50/EC50 Nucleus MI” value ([4]; fixed assay) was 95.7 µM and the “IC50/EC50 Phospholipidosis Area” value ([4]; fixed assay) was 4.5 µM. The “IC50/EC50 Nucleus Area” value ([4]; live assay) was 10.4 µM and the “IC50/EC50 PMP MI” value ([4]; live assay) was 42.2 µM.
